{"sequences": {"note": "Amino acid sequences for entries named in this document (tags omitted). Residues count along the entry.", "UniProt P01127, 82-190": "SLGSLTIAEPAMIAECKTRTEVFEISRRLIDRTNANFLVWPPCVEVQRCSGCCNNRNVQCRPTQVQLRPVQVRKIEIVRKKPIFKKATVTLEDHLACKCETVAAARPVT"}, "source": "patent US20020197617", "about": "“Aptamers as reagents for high throughput screening” (GILEAD SCIENCES, INC., published 2002)", "target": "PDGF-BB (platelet-derived growth factor BB) (Homo sapiens) (UniProt P01127)", "assay": "FP", "conditions": "27-mer truncated to reduce affinity about 10-fold; Kd method not stated, competition assays by nitrocellulose filter binding in HBSMC pH 7.4, 1 mM Mg, 1 mM Ca, 37 C; purified recombinant protein; protein details: R&D Systems, carrier free lyophilized; label: 5'-32P; single-stranded DNA; variant of 20ta", "note": "For at least one entry, the source does not settle the construct or the ends of the probe."}
{"sequence": "GGGCCGTTTCGGGTTACTTTTAGTCCC [20tb]", "values": [{"measurement": "Kd", "value": 500, "unit": "pM"}]}
